Library screening results

Amino acid sequences for entries named in this document (tags omitted).
UniProt E9BF75, entry or part of it: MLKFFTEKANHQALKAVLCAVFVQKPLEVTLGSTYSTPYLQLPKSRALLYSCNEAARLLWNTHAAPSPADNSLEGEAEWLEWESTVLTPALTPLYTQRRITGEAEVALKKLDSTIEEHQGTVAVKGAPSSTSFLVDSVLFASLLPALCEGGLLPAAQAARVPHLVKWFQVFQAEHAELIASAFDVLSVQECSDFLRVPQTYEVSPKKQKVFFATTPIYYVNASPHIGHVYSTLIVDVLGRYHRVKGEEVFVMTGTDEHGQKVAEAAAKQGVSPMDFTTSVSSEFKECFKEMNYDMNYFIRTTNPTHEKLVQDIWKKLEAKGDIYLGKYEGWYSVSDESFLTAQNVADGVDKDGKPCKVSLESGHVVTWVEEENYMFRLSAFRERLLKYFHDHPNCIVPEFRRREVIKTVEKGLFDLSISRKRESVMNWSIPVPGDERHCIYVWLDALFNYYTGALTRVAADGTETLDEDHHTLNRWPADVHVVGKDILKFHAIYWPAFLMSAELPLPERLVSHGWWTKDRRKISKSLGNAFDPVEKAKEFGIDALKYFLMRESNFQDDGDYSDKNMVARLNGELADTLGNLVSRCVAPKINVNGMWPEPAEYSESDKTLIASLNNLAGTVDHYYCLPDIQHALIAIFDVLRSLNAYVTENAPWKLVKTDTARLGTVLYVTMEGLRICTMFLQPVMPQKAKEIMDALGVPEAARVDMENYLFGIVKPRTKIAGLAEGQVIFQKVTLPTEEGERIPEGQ

A: 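Assay on Mycobacterium tuberculosis, filed only as a heat shock assay from Cornell; the read-out is not stated. The concentration is filed as 10 mM, unlikely as a test dose, so the dose is not known. The record gives no direction; compounds that gave an IC50 in retests scored well above the rest, so higher reads as stronger inhibition. About 69,000 compounds were tested under these conditions; 1.4% (about 930) showed 50% or more at least once.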
B: 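Primary screen of methionyl-tRNA synthetase; the read-out is not stated. Target: Methionyl-tRNA synthetase (putative), Leishmania donovani (UniProt E9BF75). The test concentration is not given. Values are per cent inhibition. Of about 68,000 compounds tested this way, about 24 (0.035%) reached 50% or more in at least one test.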
C: 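Whole-cell assay for inhibitors of Mycobacterium tuberculosis growth, labelled Cornell in the record; the read-out is not stated. The concentration is filed as 10 mM, unlikely as a test dose, so the dose is not known. Higher means stronger inhibition (inferred from two other growth screens of the library). Size under these conditions: about 53,000 compounds, about 900 of them at 50% or above in at least one test.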

Results are percentages, as filed. The record does not define 0% and 100%; most values in the screen are far below 50% and negative numbers occur (in some assays of this library far below -100). Compounds were drawn at random from those tested, without regard to their results. A dash means the value is not listed here; it may have been measured.

SMILES | A | B | C
Cc1cccc(CN2CCc3cc(C(=O)O)c(N(C)C)nc3CC2)n1.O=C(O)C(F)(F)F.O=C(O)C(F)(F)F | -5.203 | - | 38.22
COC1COC2(CCN(C(=O)c3cocn3)CC2)C1 (centres undefined) | 1.305 | 7.268 | -26.91
CN1CCC(c2nnc(CN3CCC(O)CC3)n2C)CC1 | 13.56 | 14.29 | -1.472
CCOc1cc(Cl)c(CN2CCC3(CCCNC3=O)C2)cc1OC (centres undefined) | -4.405 | 5.483 | -
Cc1nc(CN2CCCC(CCNS(C)(=O)=O)C2)c[nH]1 (centres undefined) | -1.341 | 15.56 | 27.45
Fc1cccc(C(NCc2ncc[nH]2)c2ccccn2)c1 (centres undefined) | 0.4881 | 2.484 | -
CC(O)CN1CC2(CCC1=O)CCN(C(=O)c1cnn(C)c1)CC2 (centres undefined) | 16.61 | 9.6 | -
CC(C)N1CCC(NCc2cccnc2N(C)C)CC1 | 7.256 | 15.61 | 10.4
CCCN1CCC(Nc2nc(C)ns2)CC1 | -7.143 | 18.05 | -
O=C(CSC1=NS(=O)(=O)c2cc(F)ccc2N1)c1ccccc1 | 17.64 | 2.254 | 24.59
COc1cc(C(=O)Nc2nc(C)no2)ccc1OC(F)F | 79.09 | 12.68 | -
CNC(=O)[C@@H](CC(C)C)N1CCC[C@H]1C(=O)N(C)Cc1ccccc1 | - | 4.945 | -
COc1ccc(C(=O)NC2CC2)c(OC2CCN(C(C)CO)CC2)c1 (centres undefined) | -19.18 | 11.73 | -6.047
CCn1cc(CN2CCN(CC(O)c3ccc(C)cc3C)CC2)c(C)n1 (centres undefined) | 10.08 | 15.48 | -0.3027
CCc1nccn1CC(=O)N1C[C@H]2CC[C@@H]1CN(c1ncccn1)C2 | - | 2.419 | -
O=C(O)C(F)(F)F.[H][C@@]12CCN(S(=O)(=O)c3cccc(C)c3)C[C@]1([H])[C@@H](CN(C)C)OC2 | -15.25 | - | 12.91
CCc1nnc(CN2CC(n3cccn3)C2)o1 | -0.1811 | 9.887 | -0.6865
O=C(O)C(F)(F)F.[H][C@@]12CCN(C3CCC3)[C@]1([H])CC[C@H](C(=O)NCc1ccco1)O2 | -4.585 | - | 4.906
OCC1(O)CCN(Cc2ccc(C3CCCCO3)o2)CC1 (centres undefined) | 1.612 | 15.24 | -
CNS(=O)(=O)CCCN1CCCCCC1c1ccc(C)o1 (centres undefined) | 13.12 | 13.54 | 24.97
CCc1cnc(CN2CCOC(c3nc(C)n[nH]3)C2)o1 (centres undefined) | -9.277 | 23.37 | 15.76
Cc1noc(C2(C)CCN(C(=O)C(C)C)CC2)n1 | 21.95 | 18.37 | -18.49
O=C(O)C(F)(F)F.[H][C@@]12C[C@H](C(=O)N3CCCC3)CN(C(=O)c3ccncc3)[C@]1([H])CCO2 | -34.63 | - | 18.02
CCC(CNC(=O)c1ccc(=O)[nH]n1)N1CCc2ccccc2C1 (centres undefined) | -4.669 | 7.609 | -
COCc1nc2cc(NCc3cc[nH]n3)ccc2o1 | -0.533 | 10.44 | 106.8
O=C(O)C(F)(F)F.[H][C@@]12C[C@H](C(=O)NCc3ccco3)CN(C(=O)c3ccncc3)[C@]1([H])CCO2 | -5.757 | - | 4.626
CN(Cc1ccc2c(c1)OCO2)Cc1nc(Cc2ccccc2)no1 | 8.59 | 14.34 | 3.593
Cn1ccc(C(=O)NCc2cccc(N3CCCCC3=O)c2)cc1=O | 17.17 | 11.5 | 19.79
Cc1ccc(C(=O)N2CC[C@H]3[C@@H]2CCC(=O)N3c2cccnc2)o1 | - | 10.44 | -
CN1CCCc2c1nc1c(c2N)CCC1 | 11.94 | 15.32 | -9.645
O=C(NCC(F)(F)F)c1ccc(-n2cccn2)nn1 | -7.164 | 13.84 | -0.4656
CC(C)c1noc(-c2ccc(N(C)C3CCOCC3)nc2)n1 | -3.754 | 2.406 | -
NC(=O)CN1CCC(NC(=O)Nc2nccs2)CC1 | 4.887 | 4.908 | -2.698
c1ccc(C[C@H]2CN(Cc3nccs3)CC[C@@H]2OCC2CC2)cc1 | - | 13.65 | -
CN(C)CCOCC1CN(Cc2ccsc2)Cc2ccnn2C1.O=C(O)C(F)(F)F.O=C(O)C(F)(F)F.O=C(O)C(F)(F)F (centres undefined) | 6.152 | - | -2.086
CCn1nc(C)cc1NC(=O)CCn1nc(C)c(Br)c1C | -6.004 | 5.382 | -25.04
Cc1ccc2[nH]c(CN(C)c3cc(CCN)nc(C)n3)nc2c1 | 9.916 | 15.38 | -41.22
Cc1occc1C(=O)N1CCC2(CCCN(Cc3cccs3)C2)C1 (centres undefined) | - | 9.14 | -
Cc1cccc(-c2ccc(C(=O)N3CCN(C4CC4)CC3)c(=O)[nH]2)c1 | 4.07 | 5.263 | -11.96
COc1ccc2ncn(Cc3ncc[nH]3)c(=O)c2c1 | -19.4 | 14.24 | 6.324
CS(=O)(=O)NCc1cnc2n1CCN(Cc1ccco1)CC2 | - | 1.875 | -
CCCn1cc(Cl)c(C(=O)N2C[C@H]3C[C@H](OC)C[C@H]3C2)n1 | - | 8.723 | -
CCC(O)CN1CCN(C(=O)c2ccc(N(C)C)nn2)CC1 (centres undefined) | -4.97 | 8.434 | -
COc1ccc(C(=O)NCc2cccnc2N2CCOCC2)o1 | -2.148 | 10.88 | 15.8
CCc1ccccc1CN1CCn2nc(CNC(C)=O)cc2C1 | -5.386 | 7.988 | -8.179
O=C(O)C1(n2ccnc2)CCN(Cc2ccc3occc3c2)CC1 | 0.8673 | -2.978 | 14.63
CCC1CN(C(=O)c2ccc(O)cn2)CCC(=O)N1Cc1ccccc1 (centres undefined) | -17.3 | 9.929 | -11.43
Cc1cccc(CN2CCn3cc(Cn4cccn4)nc3C2)n1 | - | 17.58 | -
Cc1nn(C)c2c(=O)n(CC(=O)NCc3ccccc3Cl)ccc12 | -7.047 | 0.7752 | -16.1
Cc1oc(NC(=O)C(C)N2CCN(CCO)CC2)c(C#N)c1C (centres undefined) | 19.88 | 12.32 | -29.44
O=C(C1CCN(c2ccnc3ccc(Br)cc23)CC1)N1CCOCC1 | -14.54 | 7.143 | -18.98
CNC(=O)CCc1cc(C)nc(C2CCN(c3ccccc3)CC2)c1 | 8.405 | 14.95 | 11.08
Cc1noc(CCCC(=O)NC(C)c2ccccn2)n1 (centres undefined) | 1.109 | 18.37 | -
CC(C(=O)N1CCCN(Cc2cnn(C)c2)CC1)n1ccnc1 (centres undefined) | -36.96 | 15.3 | -
O=C(NCc1nc(NC2CCCC2)c2cc(Cl)ccc2n1)c1cscn1 | 4.399 | 4.267 | -

The first 6 entries again:

SMILES,A,B,C
Cc1cccc(CN2CCc3cc(C(=O)O)c(N(C)C)nc3CC2)n1.O=C(O)C(F)(F)F.O=C(O)C(F)(F)F,-5.203,-,38.22
COC1COC2(CCN(C(=O)c3cocn3)CC2)C1 (centres undefined),1.305,7.268,-26.91
CN1CCC(c2nnc(CN3CCC(O)CC3)n2C)CC1,13.56,14.29,-1.472
CCOc1cc(Cl)c(CN2CCC3(CCCNC3=O)C2)cc1OC (centres undefined),-4.405,5.483,-
Cc1nc(CN2CCCC(CCNS(C)(=O)=O)C2)c[nH]1 (centres undefined),-1.341,15.56,27.45
Fc1cccc(C(NCc2ncc[nH]2)c2ccccn2)c1 (centres undefined),0.4881,2.484,-

The values are deposited in ChEMBL (CHEMBL3988442, “University of Dundee, Small-Polar-MMV Screening Library” (2021)).